These results are taken from PMC8141886.

Sequences of proteins named here, by UniProt entry; tags and fusion partners are left off. A change or cut given only in a name is not applied to a line headed by its entry.
UniProt P08047: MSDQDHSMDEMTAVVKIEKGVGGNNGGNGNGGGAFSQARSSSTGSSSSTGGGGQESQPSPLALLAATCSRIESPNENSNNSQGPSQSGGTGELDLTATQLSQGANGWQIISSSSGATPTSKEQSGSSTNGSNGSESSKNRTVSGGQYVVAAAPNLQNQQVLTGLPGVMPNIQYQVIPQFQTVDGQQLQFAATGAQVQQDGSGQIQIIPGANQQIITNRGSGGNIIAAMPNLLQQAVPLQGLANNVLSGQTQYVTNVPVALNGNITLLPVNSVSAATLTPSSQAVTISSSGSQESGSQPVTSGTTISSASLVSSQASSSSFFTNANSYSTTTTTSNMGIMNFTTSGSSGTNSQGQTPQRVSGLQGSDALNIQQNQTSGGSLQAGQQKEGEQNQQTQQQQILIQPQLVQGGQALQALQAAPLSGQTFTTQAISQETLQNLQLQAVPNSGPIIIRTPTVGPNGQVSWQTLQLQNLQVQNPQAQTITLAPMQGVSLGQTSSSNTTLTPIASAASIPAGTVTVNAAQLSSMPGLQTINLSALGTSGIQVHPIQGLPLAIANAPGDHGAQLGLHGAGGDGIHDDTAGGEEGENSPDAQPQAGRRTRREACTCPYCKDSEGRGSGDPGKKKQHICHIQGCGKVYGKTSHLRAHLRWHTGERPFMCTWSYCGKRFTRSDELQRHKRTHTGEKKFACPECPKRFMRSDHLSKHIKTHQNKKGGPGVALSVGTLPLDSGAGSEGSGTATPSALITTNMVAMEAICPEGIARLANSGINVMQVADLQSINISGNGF
UniProt Q14145: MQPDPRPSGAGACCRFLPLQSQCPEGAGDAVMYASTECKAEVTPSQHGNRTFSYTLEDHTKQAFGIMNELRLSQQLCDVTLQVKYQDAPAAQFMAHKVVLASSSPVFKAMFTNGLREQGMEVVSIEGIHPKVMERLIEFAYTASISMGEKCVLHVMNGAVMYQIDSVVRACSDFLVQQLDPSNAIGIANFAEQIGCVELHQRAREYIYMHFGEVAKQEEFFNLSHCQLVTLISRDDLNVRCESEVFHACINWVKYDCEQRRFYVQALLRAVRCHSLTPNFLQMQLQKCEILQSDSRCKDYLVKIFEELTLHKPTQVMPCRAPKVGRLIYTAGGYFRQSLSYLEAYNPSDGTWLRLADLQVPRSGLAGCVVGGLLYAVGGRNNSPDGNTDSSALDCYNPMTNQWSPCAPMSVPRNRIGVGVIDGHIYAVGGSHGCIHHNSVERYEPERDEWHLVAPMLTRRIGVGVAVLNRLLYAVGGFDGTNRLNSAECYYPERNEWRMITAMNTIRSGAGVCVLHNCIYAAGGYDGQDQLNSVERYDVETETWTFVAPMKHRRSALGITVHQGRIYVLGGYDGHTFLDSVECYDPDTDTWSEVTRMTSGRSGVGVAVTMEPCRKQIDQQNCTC

No constants are given. Whether binding was seen depends on the method and setting. In cells and extracts the contact can be indirect. Some binding calls cover weakened binding; strength is not graded here.

Assay [1] addresses T1, Nrf2-VC (human) (UniProt Q16236).
T1 sequence: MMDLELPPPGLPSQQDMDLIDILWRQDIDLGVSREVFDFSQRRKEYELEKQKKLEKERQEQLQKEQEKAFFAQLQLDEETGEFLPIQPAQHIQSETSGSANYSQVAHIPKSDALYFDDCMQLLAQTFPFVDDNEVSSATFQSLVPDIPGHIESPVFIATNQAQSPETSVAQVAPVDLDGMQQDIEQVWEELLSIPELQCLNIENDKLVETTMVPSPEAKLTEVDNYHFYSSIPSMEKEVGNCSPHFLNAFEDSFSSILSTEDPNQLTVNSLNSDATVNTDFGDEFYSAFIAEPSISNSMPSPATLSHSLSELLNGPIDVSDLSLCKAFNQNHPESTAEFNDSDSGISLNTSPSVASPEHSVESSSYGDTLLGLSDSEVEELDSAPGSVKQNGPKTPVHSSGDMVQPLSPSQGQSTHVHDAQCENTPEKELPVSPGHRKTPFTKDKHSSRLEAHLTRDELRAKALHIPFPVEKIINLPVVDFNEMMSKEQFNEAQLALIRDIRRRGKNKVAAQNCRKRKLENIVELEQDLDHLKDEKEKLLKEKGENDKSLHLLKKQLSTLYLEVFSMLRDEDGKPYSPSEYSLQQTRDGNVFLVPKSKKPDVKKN
As to the kind of experiment: split reporter; BiFC with Venus fragments VN155 and VC155 co-expressed in Hep3B cells; fixed 24 h after transfection, confocal microscopy.

Assay [2] concerns the target Myc-Sp1 full-length (human) (UniProt P08047). Description: co-IP; Hep3B cells transfected with Myc-Sp1 constructs; lysate (50 mM Tris-HCl pH 8.0, 150 mM NaCl, 1% Triton X-100) precipitated with anti-Myc antibody and protein G-Sepharose at 4 °C; blot with anti-Keap1.
For assay [3], the target named is Keap1 fused to the C-terminal fragment of Venus (VC155) (human) (UniProt Q14145). Description: split reporter; BiFC with Venus fragments VN155 and VC155 co-expressed in Hep3B cells; fixed 24 h after transfection, confocal microscopy.
The target of assay [4] is FLAG-Keap1 full-length (human) (UniProt Q14145). Description: co-IP; Hep3B cells transfected with FLAG-Keap1 constructs; lysate (50 mM Tris-HCl pH 8.0, 150 mM NaCl, 1% Triton X-100) precipitated with anti-FLAG antibody and protein G-Sepharose at 4 °C; blot with anti-Sp1.

With “FLAG-WDR23 isoform 1-VN (from UniProt Q8TEB1-1 1-546) (other; other documents disagree on this pair)”, the binding entry in assay [1] is recorded as “binds”.

For “Keap1 (endogenous, Hep3B) (from UniProt Q14145 1-624)”, in assay [2], the binding entry was “binds”.

Take “N-terminal fragment of Venus (VN155, I152 L) fused to the N terminal of Sp1 (from UniProt P08047-1 1-785)”: the binding result in assay [3] is reported as “binds”.

In the case of “Sp1 (endogenous, Hep3B) (from UniProt P08047-1 1-785)”, the binding entry in assay [4] is given as “binds”.
